Experimental data: PubChem BioAssay AID1259254 (NCATS, 2017)
This is a random part of about 59,000 reagents. In the full data, about 1,550 (2.6%) were called active. 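G2 share is only a proxy for re-replication; each gene was hit by three separate siRNAs, and active genes were retested.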 Raw values vary from plate to plate and are shown uncorrected. The numbers tell different reagents against one gene apart. Not given: the amount of reagent.

- Assay: 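Gene knock-downs that lead to re-replication, shown by excess G2 DNA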 (primary screen)
- Cells: human HCT116 colorectal cancer cells
- Reagent: single siRNA against human genes
- Duration: 3 days
- Read-out: 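Nuclei stained with Hoechst and imaged; cell-cycle phase assigned by DNA content; G2 share scaled per plate, non-targeting siRNA 0%, GMNN siRNA 100%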
- Scale: G2 robust z-score and G2 cells, % of GMNN control: higher = more G2 cells, more excess DNA replication; raw share of cells in G2: higher = larger share of cells with G2 DNA content
- Active means: 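An siRNA counts as active if its G2 robust z-score lies at least 5 MADs above the screen median; here such calls match roughly 38% of GMNN control or more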

| Target gene | reagent | G2 robust z-score | G2 cells, % of GMNN control | raw share of cells in G2 (%) | Call |
| --- | --- | --- | --- | --- | --- |
| TMEM242 (transmembrane protein 242) | 1 | -0.0691 | 2.48 | 4.08 | inactive |
| TMEM242 (transmembrane protein 242) | 2 | 0.0436 | 3.27 | 5.38 | inactive |
| TMEM242 (transmembrane protein 242) | 3 | 0.608 | 7.24 | 5.67 | inactive |
| BCL2L13 (BCL2 like 13) | 1 | -1.29 | -6.14 | 1.98 | inactive |
| BCL2L13 (BCL2 like 13) | 2 | 4.93 | 37.6 | 23.2 | inactive |
| BCL2L13 (BCL2 like 13) | 3 | -0.288 | 0.942 | 4.5 | inactive |
| C3orf70 (chromosome 3 open reading frame 70) | 1 | 10.1 | 74 | 25.8 | active |
| C3orf70 (chromosome 3 open reading frame 70) | 2 | -0.0412 | 2.68 | 4.62 | inactive |
| C3orf70 (chromosome 3 open reading frame 70) | 3 | 2.97 | 23.9 | 12.3 | inactive |
| SRRM2 (serine/arginine repetitive matrix 2) | 1 | -0.859 | -3.08 | 3.26 | inactive |
| SRRM2 (serine/arginine repetitive matrix 2) | 2 | 1.75 | 15.3 | 10.6 | inactive |
| SRRM2 (serine/arginine repetitive matrix 2) | 3 | -0.385 | 0.256 | 3.39 | inactive |
| TNRC6B (trinucleotide repeat containing adaptor 6B) | 1 | -0.00939 | 2.9 | 6.12 | inactive |
| TNRC6B (trinucleotide repeat containing adaptor 6B) | 2 | -0.205 | 1.52 | 4.76 | inactive |
| TNRC6B (trinucleotide repeat containing adaptor 6B) | 3 | 0.647 | 7.52 | 5.99 | inactive |
| UNC5CL (unc-5 family C-terminal like) | 1 | 0.126 | 3.86 | 4.42 | inactive |
| UNC5CL (unc-5 family C-terminal like) | 2 | -0.191 | 1.62 | 4.17 | inactive |
| UNC5CL (unc-5 family C-terminal like) | 3 | -0.26 | 1.14 | 3.52 | inactive |
| ZNF516 (zinc finger protein 516) | 1 | -0.974 | -3.89 | 3.17 | inactive |
| ZNF516 (zinc finger protein 516) | 2 | -0.281 | 0.989 | 5.58 | inactive |
| ZNF516 (zinc finger protein 516) | 3 | -0.238 | 1.29 | 3.64 | inactive |
| ERCC2 (ERCC excision repair 2, TFIIH core complex helicase subunit) | 1 | 0.207 | 4.43 | 6.84 | inactive |
| ERCC2 (ERCC excision repair 2, TFIIH core complex helicase subunit) | 2 | 7.17 | 53.4 | 25.6 | active |
| ERCC2 (ERCC excision repair 2, TFIIH core complex helicase subunit) | 3 | -0.0824 | 2.39 | 4.51 | inactive |
| LARGE1 (LARGE xylosyl- and glucuronyltransferase 1) | 1 | 1.67 | 14.7 | 11.2 | inactive |
| LARGE1 (LARGE xylosyl- and glucuronyltransferase 1) | 2 | 0.101 | 3.68 | 6.02 | inactive |
| LARGE1 (LARGE xylosyl- and glucuronyltransferase 1) | 3 | 0.136 | 3.92 | 6.64 | inactive |
| VMA21 (vacuolar ATPase assembly factor VMA21) | 1 | 3.53 | 27.8 | 13.7 | inactive |
| VMA21 (vacuolar ATPase assembly factor VMA21) | 2 | 0.712 | 7.98 | 5.86 | inactive |
| VMA21 (vacuolar ATPase assembly factor VMA21) | 3 | -0.422 | 0.000697 | 3.19 | inactive |
| CSTPP1 | 1 | 0.544 | 6.79 | 7.54 | inactive |
| CSTPP1 | 2 | 0.493 | 6.44 | 7.49 | inactive |
| CSTPP1 | 3 | 7.8 | 57.8 | 18 | active |
| PHF8 (PHD finger protein 8) | 1 | -0.823 | -2.82 | 3.88 | inactive |
| PHF8 (PHD finger protein 8) | 2 | -0.412 | 0.0692 | 4.16 | inactive |
| PHF8 (PHD finger protein 8) | 3 | 0.773 | 8.4 | 6.32 | inactive |
| LSM3 | 1 | -0.373 | 0.345 | 4.3 | inactive |
| LSM3 | 2 | -0.259 | 1.14 | 6.68 | inactive |
| LSM3 | 3 | 0.209 | 4.44 | 5.44 | inactive |
| FABP1 (fatty acid binding protein 1) | 1 | 0.0596 | 3.39 | 6.55 | inactive |
| FABP1 (fatty acid binding protein 1) | 2 | 0.0358 | 3.22 | 4.8 | inactive |
| FABP1 (fatty acid binding protein 1) | 3 | 2.09 | 17.7 | 11.7 | inactive |
| IL20RB (interleukin 20 receptor subunit beta) | 1 | 0.636 | 7.44 | 9.33 | inactive |
| IL20RB (interleukin 20 receptor subunit beta) | 2 | 3.39 | 26.8 | 14.1 | inactive |
| IL20RB (interleukin 20 receptor subunit beta) | 3 | 2.57 | 21 | 11.9 | inactive |
| PLAGL1 (PLAG1 like zinc finger 1) | 1 | 0.479 | 6.34 | 5.98 | inactive |
| PLAGL1 (PLAG1 like zinc finger 1) | 2 | 1.85 | 16 | 12.3 | inactive |
| PLAGL1 (PLAG1 like zinc finger 1) | 3 | -0.0278 | 2.77 | 4.11 | inactive |
| DEFB107A (defensin beta 107A) | 1 | -0.0603 | 2.54 | 4.01 | inactive |
| DEFB107A (defensin beta 107A) | 2 | -0.812 | -2.75 | 2.58 | inactive |
| DEFB107A (defensin beta 107A) | 3 | -0.848 | -3 | 2.1 | inactive |
| MIP (major intrinsic protein of lens fiber) | 1 | -0.232 | 1.34 | 6 | inactive |
| MIP (major intrinsic protein of lens fiber) | 2 | -0.632 | -1.48 | 2.71 | inactive |
| MIP (major intrinsic protein of lens fiber) | 3 | -0.313 | 0.767 | 5.66 | inactive |
| FOXK1 (forkhead box K1) | 1 | -0.289 | 0.938 | 5.09 | inactive |
| FOXK1 (forkhead box K1) | 2 | 1.17 | 11.2 | 8.81 | inactive |
| FOXK1 (forkhead box K1) | 3 | 0.351 | 5.44 | 8.55 | inactive |
| SLC9D1 | 1 | -0.839 | -2.94 | 3.39 | inactive |
| SLC9D1 | 2 | -0.394 | 0.197 | 4.42 | inactive |
| SLC9D1 | 3 | 2.54 | 20.9 | 15.6 | inactive |
| OR6Y1 (olfactory receptor family 6 subfamily Y member 1) | 1 | -0.525 | -0.726 | 3.55 | inactive |
| OR6Y1 (olfactory receptor family 6 subfamily Y member 1) | 2 | 4.24 | 32.8 | 16.5 | inactive |
| OR6Y1 (olfactory receptor family 6 subfamily Y member 1) | 3 | -1.02 | -4.23 | 3.04 | inactive |
| RPL18 (ribosomal protein L18) | 1 | 1.75 | 15.3 | 11.5 | inactive |
| RPL18 (ribosomal protein L18) | 2 | 1.26 | 11.8 | 8.89 | inactive |
| RPL18 (ribosomal protein L18) | 3 | 0.956 | 9.69 | 6.86 | inactive |
| S1PR3 (sphingosine-1-phosphate receptor 3) | 1 | 1.25 | 11.7 | 10 | inactive |
| S1PR3 (sphingosine-1-phosphate receptor 3) | 2 | -0.268 | 1.08 | 4.89 | inactive |
| S1PR3 (sphingosine-1-phosphate receptor 3) | 3 | -0.852 | -3.03 | 2.34 | inactive |
| S1PR3 (sphingosine-1-phosphate receptor 3) | 4 | -0.433 | -0.079 | 3.61 | inactive |
| S1PR3 (sphingosine-1-phosphate receptor 3) | 5 | 0.132 | 3.9 | 4.55 | inactive |
| S1PR3 (sphingosine-1-phosphate receptor 3) | 6 | -0.437 | -0.105 | 3.23 | inactive |

Hits, among the entries above:
| Target gene | reagent | G2 robust z-score | G2 cells, % of GMNN control | raw share of cells in G2 (%) | Call |
| --- | --- | --- | --- | --- | --- |
| C3orf70 (chromosome 3 open reading frame 70) | 1 | 10.1 | 74 | 25.8 | active |
| ERCC2 (ERCC excision repair 2, TFIIH core complex helicase subunit) | 2 | 7.17 | 53.4 | 25.6 | active |
| CSTPP1 | 3 | 7.8 | 57.8 | 18 | active |
